From US20240010723A1 (IBEX BIOSCIENCES, published 2024)
No constants are given. Whether binding was seen depends on the method and setting. Some results given as binding are weak or reduced against the parent protein; the word gives no strength. Blank lines part the entries; values can stand above or below the binder they belong to.

Amino acid sequences for entries named in this document (tags omitted). A change or cut given only in a name is not applied to a line headed by its entry.
UniProt P35613: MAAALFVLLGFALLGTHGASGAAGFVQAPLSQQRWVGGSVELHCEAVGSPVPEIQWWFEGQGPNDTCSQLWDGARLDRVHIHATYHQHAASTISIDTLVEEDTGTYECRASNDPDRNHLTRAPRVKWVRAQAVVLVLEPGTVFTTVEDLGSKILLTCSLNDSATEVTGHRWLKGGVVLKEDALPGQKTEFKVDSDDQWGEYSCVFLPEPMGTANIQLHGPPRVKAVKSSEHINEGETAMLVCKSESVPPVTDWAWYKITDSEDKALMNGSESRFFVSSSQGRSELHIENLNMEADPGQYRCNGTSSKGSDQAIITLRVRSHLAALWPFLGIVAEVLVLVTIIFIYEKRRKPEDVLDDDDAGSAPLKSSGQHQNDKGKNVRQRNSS

How the values were obtained:
[1] = biological target: Human CD147 expressed on cells (HEK 293, HCC 1954, HeLa, Jurkat) (human) (UniProt P35613); assay: flow cytometry on HEK 293 and HCC 1954 cells, 1 µg Ibx-77, anti-Flag Dylight488
[2] = biological target: Human CD147 (Uniprot P35613), recombinant protein (human) (UniProt P35613); assay: SPR, CD147 as analyte (Example 3, FIG. 4)
[3] = biological target: Human CD147 expressed on cells (HEK 293, HCC 1954, HeLa, Jurkat) (human) (UniProt P35613); assay: flow cytometry on Jurkat cells
[4] = biological target: Human CD147 (Uniprot P35613), recombinant protein (human) (UniProt P35613); assay: SPR, CD147 immobilized on CMD chip, Ibx-77 injected at 9.22-360 nM (Example 4, FIG. 7)
[5] = biological target: Human CD147 expressed on cells (HEK 293, HCC 1954, HeLa, Jurkat) (human) (UniProt P35613); assay: flow cytometry on HeLa and HCC-1954 cells, 10 µg antibody
[6] = biological target: Human CD147 expressed on cells (HEK 293, HCC 1954, HeLa, Jurkat) (human) (UniProt P35613); assay: flow cytometry on HeLa cells, anti-Flag Dylight488
[7] = biological target: Human CD147 (Uniprot P35613), recombinant protein (human) (UniProt P35613); assay: ELISA, human CD147 coated (FIG. 1)
[8] = biological target: Human CD147 (Uniprot P35613), recombinant protein (human) (UniProt P35613); assay: SPR, CD147 as analyte (Example 3, FIG. 5)
[9] = biological target: Human CD147 (Uniprot P35613), recombinant protein (human) (UniProt P35613); assay: SPR, CD147 immobilized on CMD chip, Ibx-77 injected at 9.22-360 nM (Example 4, FIG. 6)
[10] = biological target: Human CD147 (Uniprot P35613), recombinant protein (human) (UniProt P35613); assay: SPR sensorgram comparison

- binding [1]: binds
- binding [2]: binds
- binding [3]: binds
- binding [4]: binds
- binding [5]: binds
- binding [6]: binds
- binding [7]: binds
- binding [8]: binds
- binding [9]: binds
B1: Ibx-77 (dimer of Ibx-14) (VHH, not shown: small tags and cut ends)
chain: QVQLVESGGGLVQAGDSLTLSCAASGRSLSSNAMGWFRQAPGKEREFVSGTTWHAGTQYYAYAADSVKGRFTTSRDNANTVSLQMKRLKPEDTAVYYCAAAVSGPGYDSWGQGTQVTVSSEPKIPQPQPKPQPQPQPQPQPKPQPEPQVQLVESGGGLVQAGDSLTLSCAASGRSLSSNAMGWFRQAPGKEREFVSGTTWHAGTQYYAYAADSVKGRFTTSRDNANTVSLQMKRLKPEDTAVYYCAAAVSGPGYDSWGQGTQVTVSS
notes: Tandem bivalent VhH without Fc

- binding [7]: binds
B2: Ibx-76 (dimer of Ibx-13) (VHH)
chain: QVQLVESGGGLVQPGGSLRLSCTASEDTFSTYAIGWFRQAPGQGREFVAGITANGIATRYNDSLKDRFTISRDNAKNTVYLQMNSLQPEDTAVYSCGADTRRFSLPSTVHEIDYWGQGTQVTVSSEPKIPQPQPKPQPQPQPQPQPKPQPEPQVQLVESGGGLVQPGGSLRLSCTASEDTFSTYAIGWFRQAPGQGREFVAGITANGIATRYNDSLKDRFTISRDNAKNTVYLQMNSLQPEDTAVYSCGADTRRFSLPSTVHEIDYWGQGTQVTVSS
notes: Tandem bivalent VhH without Fc; not shown: Flag tag, since detection was with anti-flag

- binding [10]: binds
B3: Ibx-74 (dimer of Ibx-11) (VHH)
chain: QVRLEESGGGLVQAGGSLRLSCAASGLAFSIYGMGWFRQAPGKEREFVSVVDNTGSTTLYADSVKGRFTISRDNAKNTVYLQMSSLEPEDTAVYYCGAGPKNYLGSHEYAYWGQGTQVTVSSEPKIPQPQPKPQPQPQPQPQPKPQPEPQVRLEESGGGLVQAGGSLRLSCAASGLAFSIYGMGWFRQAPGKEREFVSVVDNTGSTTLYADSVKGRFTISRDNAKNTVYLQMSSLEPEDTAVYYCGAGPKNYLGSHEYAYWGQGTQVTVSS
notes: Tandem bivalent VhH

- binding [10]: binds
- binding [7]: binds
B4: Ibx-75 (dimer of Ibx-12) (VHH)
chain: QVRLVESGGGLVQAGDSLRLSCQASGGTFTTYAMGWFRQAPGQEREFVSATTWSTGTSYYAYAADSVKGRFTTSRDNDNTVTLTMKRLKPDDTAVYYCSADPDGSDWAHSARQLRYWGQGTQVTVSSEPKIPQPQPKPQPQPQPQPQPKPQPEPQVRLVESGGGLVQAGDSLRLSCQASGGTFTTYAMGWFRQAPGQEREFVSATTWSTGTSYYAYAADSVKGRFTTSRDNDNTVTLTMKRLKPDDTAVYYCSADPDGSDWAHSARQLRYWGQGTQVTVSS
notes: Tandem bivalent VhH without Fc; also called tandem bivalent Ibx-75; not shown: Flag tag, since detection was with anti-flag
